58 molecules from PubChem BioAssay AID2685 (National Center for Advancing Translational Sciences (NCATS), 2010) can be followed below.

The other results are listed elsewhere or left out. The main result of the screen is listed elsewhere. These columns were measured beside it and carry no call. Most of these compounds were active or inconclusive in the main read-out, so they are no random draw. The note in brackets gives the kind of curve behind each potency; many fits are weak.

A short description of this assay: qHTS Assay for Lipid Storage Modulators in Drosophila S3 Cells.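 As to cell number change: cells counted by Cell Tracker Red CMTPX staining in the red channel.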 Conditions: BODIPY lipid droplet fluorescence, 18-24 h; for cell number change: measured here: cell count max response, cells fed with added oleic acid. Put shortly:
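Drosophila S3 cells got compounds at several concentrations plus oleic acid (400 uM solution). Laser-scanning cytometry with 488 nm excitation read lipid droplets at 500-530 nm and cells at 575-640 nm. Percent activity was relative to 20 uM Triacsin C.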

[1] abbreviates: measured here: lipid fluorescence (Fed channel) AC50, cells fed with added oleic acid.
The mark [2] stands for this setting: measured here: cell number channel AC50, cells fed with added oleic acid.

Regarding `COc1ccc(N(C(=O)c2ccc(Cl)cc2)C2=CC3CCC(C2)N3C)cc1` (configuration not stated), the cell number change is 2.49%. Also, the concentration at half-maximal activity (AC50) under setting [1] is 3.66 µM [falling, single point].
As to `CC(NS(=O)(=O)c1ccc(F)cc1)C(=O)Nc1ccc2c(c1)OCCO2` (configuration not stated), the cell number change was -16.8%. The concentration at half-maximal activity (AC50) under setting [1] was 29.1 µM [falling, single point].
As to `O=C(NCc1ccc(F)cc1)c1cc(-c2ccncc2)nc2ccccc12`, the cell number change worked out at 16.2%. In addition, under setting [1], the AC50 was 0.651 µM [rising, partial curve, poor fit].
As to `CCOc1ccc(C(=S)NC2CCCCC2)cc1`, the cell number change was -30%. The AC50 under setting [1] is 16.4 µM [falling, partial curve, poor fit].
Consider `Cc1nc(-c2ccc(F)cc2)c(CC(=O)N2CCN(S(=O)(=O)c3cccc(Cl)c3)CC2)s1`, for which the half-maximal activity concentration (AC50) under setting [2] is 3.26 µM [rising, single point].
Turning to `O=C(Nc1ccc2nc(-c3ccco3)[nH]c2c1)c1ccco1`, the cell number change amounted to 4.84%. In addition, the AC50 under setting [2] is 6.51 µM [rising, single point]. The concentration at half-maximal activity (AC50) under setting [1] was 16.4 µM [falling, partial curve, poor fit].
With `CCC(C)(C)C(=O)O`, the cell number change is -27.5%. Under setting [1], the concentration at half-maximal activity (AC50) was 0.13 µM [rising, full curve, poor fit].
For `Cc1ccc(Cl)cc1N1CCN(C(=O)Cn2ncn3cccc3c2=O)CC1`, the cell number change turned out to be 14.4%. Also, the AC50 under setting [1] was 3.26 µM [rising, partial curve].
In the case of `COc1cccc(/C=N/NC(=O)C(=O)NCc2ccco2)c1OC`, the cell number change was determined as 15.9%. In addition, the concentration at half-maximal activity (AC50) under setting [2] was 0.13 µM [falling, full curve]. Further, under setting [1], the AC50 is 0.184 µM [falling, full curve].
On to `CN(CC(=O)NCCc1ccc(S(N)(=O)=O)cc1)S(=O)(=O)/C=C/c1ccccc1`, for which the cell number change is -7.92%.
On to `CCNC(=S)Nc1ccc(C)c(Cl)c1`, for which the cell number change stood at 36.5%. In addition, the AC50 under setting [2] is 3.26 µM [rising, partial curve]. Under setting [1], the AC50 is 6.51 µM [rising, partial curve].
For `O=C(CSc1nc(C(F)(F)F)cc(=O)[nH]1)N1CCOCC1`, the cell number change is -22%. Moreover, the concentration at half-maximal activity (AC50) under setting [1] is 20.6 µM [falling, single point].
Take `O=C(COC(=O)C1CC1)Nc1ccc(OC(F)F)cc1`: the cell number change was found to be 16.8%.
As for `CC(C)=CC1C(C(=O)Nc2ccc(S(=O)(=O)N3CCOCC3)cc2)C1(C)C` (configuration not stated), the cell number change was -45.3%. For the same molecule, the half-maximal activity concentration (AC50) under setting [2] is 16.4 µM [falling, single point]. Also, the AC50 under setting [1] was 29.1 µM [falling, single point].
Consider `Cn1c(=O)c2c(nc(CN3CCN(C(=O)c4ccco4)CC3)n2Cc2ccc(Cl)cc2)n(C)c1=O`, for which the cell number change was 2.9%. Also, under setting [2], the concentration at half-maximal activity (AC50) is 0.259 µM [rising, partial curve, poor fit].
Regarding `CCCc1nnc(NC(=O)CCC(=O)N2CCN(S(=O)(=O)c3ccc(C)cc3)CC2)s1`, the cell number change was -30.7%. Besides, the AC50 under setting [2] was 2.06 µM [falling, full curve]. Further, the half-maximal activity concentration (AC50) under setting [1] was 1.84 µM [falling, full curve].
Turning to `Nc1nnnn1/N=C/c1ccc(Br)cc1`, the cell number change came to 13.2%. Under setting [1], the AC50 was 29.1 µM [rising, single point].
In the case of `CC(=O)COc1ccccc1OC(=O)c1ccco1`, the cell number change was determined as 14%. In addition, under setting [1], the AC50 is 14.6 µM [rising, single point].
As for `O=c1[nH]cccc1-c1nc2cc(Cl)ccc2n1Cc1ccccc1`, the cell number change was -3.55%.
For `CNC(=S)Nc1ccc(C)c(NC(=S)NC)c1`, the cell number change is -9.89%. For the same molecule, the concentration at half-maximal activity (AC50) under setting [1] was 0.326 µM [falling, partial curve, poor fit].
As for `COc1ccccc1CC(=O)Nc1ccc(S(=O)(=O)N(C)C2CCN(C)CC2)cc1`, the cell number change stood at 22.6%. Under setting [1], the half-maximal activity concentration (AC50) is 0.82 µM [rising, full curve, poor fit].
On to `CC(NC(=O)CCl)c1ccccc1Br` (configuration not stated), for which the cell number change was -9.34%. Under setting [1], the AC50 is 3.26 µM [falling, partial curve].
With `O=C(c1cccnc1)n1nc(-c2ccco2)nc1NCc1cccs1`, the cell number change was determined as 37.9%. Besides, the AC50 under setting [2] was 8.91 µM [rising, partial curve]. Moreover, the concentration at half-maximal activity (AC50) under setting [1] is 7.94 µM [rising, partial curve, poor fit].
With `O=C(Nc1ccc(-c2cnco2)cc1)c1ccccc1`, the cell number change was determined as 21.8%. Moreover, the AC50 under setting [2] is 0.461 µM [rising, full curve, poor fit]. The half-maximal activity concentration (AC50) under setting [1] was 0.00461 µM [rising, full curve, poor fit].
Consider `CN(C)c1cccc(C(=O)N(C)C2CCCN(Cc3ccccc3F)C2)c1` (configuration not stated), for which the cell number change is -4.67%. Besides, the half-maximal activity concentration (AC50) under setting [1] was 29.1 µM [rising, single point].
Take `CC(C)C(=O)NC(=S)Nc1ccccc1N1CCN(C(=O)c2ccc(Cl)cc2)CC1`: the cell number change is -66.8%. Under setting [2], the AC50 was 8.2 µM [falling, partial curve]. In addition, the half-maximal activity concentration (AC50) under setting [1] was 6.51 µM [falling, partial curve].
Turning to `CCC(CC)C(=O)c1c[nH]c(C(=O)NCCCn2ccnc2)c1`, the cell number change was -0.234%. Further, the AC50 under setting [2] was 6.51 µM [falling, single point].
As to `COCCCn1[nH]c2c3c(ccc2c1=O)C(=O)c1ccccc1C3=O`, the cell number change was -16%. Moreover, the AC50 under setting [1] is 20.6 µM [rising, partial curve].
With `CN1CCN(C(=O)c2cc3c(s2)-c2ccccc2S(=O)(=O)C3)CC1`, the cell number change amounted to 54.8%. Also, under setting [2], the AC50 was 2.31 µM [rising, partial curve]. In addition, under setting [1], the half-maximal activity concentration (AC50) was 0.92 µM [rising, partial curve].
In the case of `Cc1cc(NC(C)c2ccccc2)n2ncc(-c3ccccc3)c2n1` (configuration not stated), the cell number change is 13.1%. For the same molecule, under setting [1], the AC50 is 5.8 µM [rising, partial curve].
On to `CCOC(=O)N1CCN(C(=O)c2c(Cl)cnn2C)CC1`, for which the cell number change is -5.95%. Further, the AC50 under setting [1] was 29.1 µM [rising, single point].
With `CC(Oc1ccc2c(c1)c1ccnc3c4ccccc4c(=O)n2c13)C(=O)NCCN1CCOCC1` (configuration not stated), the cell number change was -7.12%. Besides, the concentration at half-maximal activity (AC50) under setting [1] was 0.651 µM [falling, full curve, poor fit].
Take `CN(C)S(=O)(=O)c1ccc(NC(=O)N2CCN(c3cccc(C(F)(F)F)c3)CC2)cc1`: the AC50 under setting [1] was 29.1 µM [falling, single point].
Consider `O=C(NCC1CCCO1)C1CCCN(S(=O)(=O)c2cc(Cl)ccc2Cl)C1` (configuration not stated), for which the cell number change was 16.9%. Moreover, the AC50 under setting [1] is 0.112 µM [rising, full curve, poor fit].
For `CC1CN(S(=O)(=O)c2ccc(NC(=O)c3ccco3)cc2)CC(C)O1` (configuration not stated), the AC50 under setting [2] was 5.17 µM [rising, single point].
Regarding `COc1cc(OC)cc(C(=O)NCC(=O)Nc2ccc(C)c(Cl)c2)c1`, the cell number change was -4.17%. Besides, under setting [1], the half-maximal activity concentration (AC50) is 0.58 µM [rising, single point].
Take `CCOC(=O)c1ccc(NC(=O)Nc2cc(C)cc(C)n2)cc1`: the cell number change worked out at 23.7%. Under setting [1], the half-maximal activity concentration (AC50) is 14.6 µM [rising, single point].
In the case of `CN(Cc1cccs1)C(=O)c1cc(S(=O)(=O)N2CCOCC2)ccc1N1CCCC1`, the cell number change was -2.77%. The AC50 under setting [1] was 5.8 µM [rising, partial curve].
For `Clc1nc(CN2CCOCC2)nc2sc3c(c12)CCC3`, the cell number change worked out at 20.9%.
As for `Cc1cccc(-c2noc(CCC(=O)NCc3ccco3)n2)c1`, the cell number change was -7.34%. Also, the half-maximal activity concentration (AC50) under setting [1] is 16.4 µM [falling, partial curve].
`CCOC(=O)c1[nH]c(C)c(C(=O)NCc2ccc(OC)cc2)c1C`: the cell number change worked out at 14.3%. The concentration at half-maximal activity (AC50) under setting [1] is 0.58 µM [rising, single point].
On to `CCOC(=O)C1=C(C)N(C)C(=O)NC1c1ccc2c(c1)OCO2` (configuration not stated), for which the cell number change stood at 20.2%. Further, the concentration at half-maximal activity (AC50) under setting [1] is 0.731 µM [rising, partial curve, poor fit].
With `CCn1c(SCC(=O)c2c[nH]c3ccccc23)nc2cc(S(=O)(=O)N3CCOCC3)ccc21`, the cell number change came out at 12.1%. Besides, under setting [1], the half-maximal activity concentration (AC50) was 2.06 µM [rising, partial curve].
As for `Cc1n[nH]c(=O)n1-c1ccc(C(C)(C)C)cc1`, the concentration at half-maximal activity (AC50) under setting [1] is 0.0058 µM [rising, full curve, poor fit].
As for `Cc1[nH]nc(N=CC2=C(O)CC(C)(C)CC2=O)c1-c1ccccc1`, the cell number change came out at 48.9%. Under setting [2], the AC50 is 29.1 µM [rising, single point]. Moreover, the half-maximal activity concentration (AC50) under setting [1] is 29.1 µM [rising, single point].
On to `O=C(CCl)NC(Cc1c[nH]c2ccc(OCc3ccccc3)cc12)C(=O)O` (configuration not stated), for which the cell number change was -12.6%. Besides, under setting [1], the concentration at half-maximal activity (AC50) was 29.1 µM [rising, single point].
Consider `O=C(CCCN1C(=O)/C(=C/c2ccccc2)SC1=S)Nc1ccccc1O`, for which the half-maximal activity concentration (AC50) under setting [2] is 0.00461 µM [rising, full curve, poor fit].
For `CN1CCc2c(sc(NC(=O)CS(=O)(=O)c3ccc(F)cc3)c2C(N)=O)C1`, the cell number change worked out at 18.5%.
With `O=[N+]([O-])c1ccc([C@H](O)[C@H](CO)N=Cc2ccccc2O)cc1`, the cell number change is -21.5%. Also, the AC50 under setting [2] was 0.0092 µM [falling, full curve, poor fit]. The AC50 under setting [1] was 0.146 µM [falling, full curve].
With `CCCCc1nc(SCC(=O)Nc2ccc(S(N)(=O)=O)cc2)n[nH]1`, the cell number change is -25.3%. Moreover, the AC50 under setting [1] is 2.06 µM [falling, full curve].
Take `COCCN(CCOC)C(=O)CN1C(=O)NC2(CCCc3sccc32)C1=O` (configuration not stated): the cell number change was found to be 20.2%. Also, the AC50 under setting [1] is 3.26 µM [falling, full curve, poor fit].
As for `CC(C)CN(CC(C)C)C1=N/C(=C\c2ccco2)C(=O)N1c1ccccc1`, the cell number change came out at 43.8%. Besides, the AC50 under setting [2] was 0.0651 µM [rising, full curve, poor fit].
As for `NC(=O)COc1ccccc1C(=O)NC12CC3CC(CC(C3)C1)C2`, the cell number change stood at 11.3%. Also, under setting [1], the half-maximal activity concentration (AC50) is 23.1 µM [falling, single point].
For `CCCCc1ccc(-c2nc(NC(=O)C3C4CCC(O4)C3C(=O)O)sc2C)cc1` (configuration not stated), the cell number change was -58.8%. Besides, the concentration at half-maximal activity (AC50) under setting [2] was 29.1 µM [falling, single point]. Also, the AC50 under setting [1] was 3.26 µM [falling, partial curve].
As for `COc1cc(SC)ccc1C(=O)OCC(=O)NCCNC(=O)COC(=O)c1ccc(SC)cc1OC`, the concentration at half-maximal activity (AC50) by setting is: under setting [2], 3.26 µM [rising, partial curve, poor fit]; under setting [1], 11.6 µM [falling, single point].
For `Cc1cccc(NS(=O)(=O)c2c(C)n[nH]c2C)c1`, the cell number change worked out at 19.7%.
For `O=[N+]([O-])c1cc(C(F)(F)F)ccc1N1CCCC(O)C1` (configuration not stated), the cell number change is -52.1%. Moreover, the AC50 under setting [2] is 4.11 µM [falling, single point].
As for `O=C(c1cc2nc(-c3cccs3)cc(C(F)(F)F)n2n1)N1CCCc2ccccc21`, the cell number change is -11%. The half-maximal activity concentration (AC50) under setting [1] is 6.51 µM [falling, single point].
